Values quoted from earlier work as cited in patent publication US5721229A, “Soluble forms of cephalosporins and treatment of animals” (Veterinary Pharmacy Corporation, priority 1995, dated 1998).

Tests used:
[1] = readily dissolved form; cited from earlier work
[2] = cited from earlier work
[3] = water-soluble form; cited from earlier work

CC1=C(C(=O)O)N2C(=O)[C@@H](NC(=O)[C@H](N)c3ccccc3)[C@H]2SC1 [cephalexin monohydrate]
Neutrally charged fraction of dissolved form [1]: 50%
Positively charged fraction of dissolved form [1]: 50%

CC1=C(C(=O)O)N2C(=O)[C@@H](NC(=O)[C@H](N)c3ccccc3)[C@H]2SC1 [cephalexin, α-aminobenzyl-3-desacetoxycephalosporin]
Absorption by the body when ingested [2]: 90%

CC1=C(C(=O)O)N2C(=O)[C@@H](NC(=O)[C@H](N)c3ccccc3)[C@H]2SC1 [sodium cephalexin]
Stability time [3]: less than 6 hours
